# Source: the supplement of paper PMC3334620
# Whole data set: some 33,000 sequences, median “E-score (-0.5 to 0.5)” near -0.0034, cut for the highest 2% near 0.25. This is one part of the list.
# Molecular target: T1, Yap3 (UniProt P38749)
# T1 sequence: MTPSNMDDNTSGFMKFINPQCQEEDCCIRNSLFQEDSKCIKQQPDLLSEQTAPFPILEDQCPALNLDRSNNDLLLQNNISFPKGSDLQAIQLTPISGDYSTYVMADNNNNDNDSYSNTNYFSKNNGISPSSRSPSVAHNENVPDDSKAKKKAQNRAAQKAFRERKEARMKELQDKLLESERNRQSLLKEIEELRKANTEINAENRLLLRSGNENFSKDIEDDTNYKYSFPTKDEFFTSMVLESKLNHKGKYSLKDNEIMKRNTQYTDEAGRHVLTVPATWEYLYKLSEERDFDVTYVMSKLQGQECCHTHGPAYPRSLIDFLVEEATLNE
# Assay: PBM E-score (8-mer binding enrichment) (E-score (-0.5 to 0.5)); higher = stronger / more preferred TF binding
# Conditions: protein concentration: 100 nM; construct: GST-full length
# Experimental: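 Universal 'all 10-mer' protein binding microarrays (Agilent AMADID 015681) probed with GST-tagged S. cerevisiae TFs (full-length or DBD) made by in vitro transcription/translation (PURExpress), about 100-200 nM. Bound TF was detected with fluorescent anti-GST. Each ungapped 8-mer (which stands for itself and its reverse complement) is scored by the PBM enrichment score (E-score), a modified Wilcoxon-Mann-Whitney statistic from -0.5 to +0.5, computed with the Universal PBM Analysis Suite. Scale: above 0.35 generally sequence-specific binding.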
row,Sequence,PBM E-score
1,ACGGGCAA,-0.133
2,CAGACCCG,-0.095
3,ATCAGTAC,0.0555
4,CTACTATC,0.178
5,AAGCCAAC,0.0844
6,AACCAATG,0.131
7,AATTATAG,0.234
8,GCGTATGA,-0.071
9,CCAGTCCC,-0.172
10,ATTTTCAC,0.174
11,TGCCTCCA,-0.172
12,CAGCGTGC,-0.131
13,CTAGCGAG,-0.183
14,AGGTAAGA,0.147
15,ATCAACAT,0.221
16,CACCTGAG,-0.00852
17,CGAATATC,0.154
18,AGGATAAG,-0.0931
19,ACAGGAAT,-0.0331
20,GCGGCTAA,-0.0345
21,GACCAGGA,-0.0158
22,TGGGTGAA,0.251
23,ATTCAATA,0.225
24,CGATCGAC,0.14
25,TTCATCAA,0.0528

row,Sequence,PBM E-score
1,TATTCTAA,0.154
2,TAGCATGA,0.149
3,GAGGTCTA,-0.165
4,ACCGTGTG,-0.088
5,ACTGTCAG,0.0443
6,GTTAGGCA,-0.14
7,AATTACTC,0.241
8,CGCAATCC,0.161
9,AGCTAGAG,0.036
10,CGGCTTTC,-0.0635
11,ACCCCTCT,-0.251
12,ACTCCTTC,-0.0777
13,GGGGTTGA,-0.0643
14,GATAAACC,0.126
15,AACTACCG,-0.0363
16,GACCTCTC,-0.0778
17,CTCGGAAG,0.00874
18,CTAGAGAC,-0.208
19,GATGCTGC,-0.136
20,ACGGATTG,0.104
21,AAAGGGTG,0.028
22,CCTACCGA,-0.0814
23,CGGGTCGA,-0.212
24,ACATGTGC,0.0335
25,CGTTGGCA,0.0701

# Pulled one by one from above (seven):
row,Sequence,PBM E-score
21,AAAGGGTG,0.028
13,GGGGTTGA,-0.0643
20,ACGGATTG,0.104
8,CGCAATCC,0.161
15,AACTACCG,-0.0363
19,GATGCTGC,-0.136
14,GATAAACC,0.126

# Later entries.

row,Sequence,PBM E-score
1,AACATCGT,-0.0393
2,AAAGGTAG,-0.102
3,CTGCCCCC,-0.207
4,CTGACGCC,-0.164
5,ACGCGGTC,-0.018
6,CACTGAAC,0.0759
7,ATCCCTAG,-0.0347
8,ACCACCTA,-0.167
9,CGGAGTCC,-0.0561
10,CGCGGCTA,0.0264
11,AAGGGCAC,-0.186
12,GCATTGCA,0.0176
13,CTCTAAAG,-0.0169
14,AGCTCATG,-0.152
15,ACTCATAA,0.0634
16,ACGCAACC,0.0284
17,CCAAATAG,-0.00601
18,ATACTGAC,0.149
19,TCGAACGA,0.115
20,GAGGTATC,-0.0977
21,CGGTGTAC,-0.121
22,CATAAATA,0.197
23,CTGAAAAC,0.0198
24,CCACTAGA,-0.17
25,AGTATATA,0.364

row,Sequence,PBM E-score
1,GCGATGGA,-0.0487
2,AGGACTCC,-0.266
3,AGCTTGCC,-0.0742
4,AACGAGCC,0.013
5,CGCCCCAC,-0.201
6,CCTCTTCG,-0.0442
7,ATGCCCTA,-0.14
8,CTTGCCTC,-0.0239
9,CCCACGAG,-0.163
10,AGACTGTC,-0.163
11,CCGGCTAC,0.0168
12,ACGTGGAG,0.0683
13,TAACCTCA,-0.0223
14,CATCGGAC,-0.163
15,AGCTATGA,-0.0409
16,AAATCTGA,0.0576
17,GCGGTGAA,0.0471
18,AGCGTTCA,-0.163
19,GGCAAACC,-0.182
20,CGTCCGGA,-0.133
21,ACGTCTAT,-0.0776
22,CCTGGGCA,-0.359
23,ATTAAGCG,0.144
24,CACGTATA,0.0718
25,CATACCTC,0.151

row,Sequence,PBM E-score
1,CCCCATGA,-0.043
2,GGACTCCA,-0.131
3,AGAAAACG,0.114
4,ACCATCCA,-0.12
5,CCATCAAG,-0.0995
6,GCATGTAA,0.0568
7,AGCCTGAC,-0.106
8,ACCTCTCT,-0.175
9,ATCAGGCA,-0.0855
10,GCACGATA,0.134
11,AAAGCGTA,-0.0563
12,ACTAAAGC,0.144
13,GATACCCA,0.0704
14,AACGCTCC,-0.0861
15,GACCCACC,-0.217
16,AAAGTGAT,0.165
17,CAATCTGG,-0.0667
18,TAGATCAA,0.0945
19,CACATTAA,0.047
20,ACTCATCC,0.157
21,GCTACGAA,0.00172
22,ATGATTGG,0.0277
23,AAACAGCC,-0.0735
24,AGTAACGA,-0.0656
25,AGGAACTC,0.0738

row,Sequence,PBM E-score
1,GACACATA,0.126
2,AAGCGACA,0.154
3,CGCTTGAG,-0.0842
4,AAGGTAGT,0.0783
5,AACGCAGC,0.0334
6,AGATAAAA,0.249
7,AATTTCGT,0.13
8,CACCGTCC,-0.0438
9,AATCGCCG,0.0414
10,GCCGGTGA,-0.0951
11,CGATATCA,0.101
12,CCGACACA,-0.0479
13,AGGCCGCA,-0.0653
14,ATTATATA,0.3
15,TCGCTAAA,0.0125
16,AGGTCCAT,0.0397
17,CACTCACA,0.078
18,ACTGTTCA,-0.0919
19,CCACTAAG,0.0472
20,AGTGGCAT,0.0233
21,AGTAGCCC,-0.183
22,CGCAGTTC,-0.0498
23,GCGAAGCA,-0.186
24,GGTACTAC,0.135
25,CTTCGGGC,-0.204

# No new results follow: an excerpt of the list.
row,Sequence,PBM E-score
5,AACGCAGC,0.0334
6,AGATAAAA,0.249
7,AATTTCGT,0.13

# Remaining list, next part:

row,Sequence,PBM E-score
1,CCCGATTA,0.142
2,CACCGATG,-0.153
3,AGGACTGC,-0.318
4,AGACTCAG,-0.044
5,AGATTTTA,0.0115
6,GGAGGACC,-0.234
7,TATTGGGA,0.0997
8,CTGCACAG,-0.0469
9,ACGACGCA,0.00709
10,AATCCCCA,-0.0814
11,CACACCAG,0.00953
12,AGGGATGG,-0.16
13,GGGAAGAC,-0.159
14,TAGCTAAA,-0.0332
15,AGTTTTGC,0.168
16,CGGACTAA,0.0673
17,ACCTTTGA,-0.0839
18,CAGCCGCA,-0.0641
19,ATCCTCAA,-0.0462
20,ACGTCATG,0.186
21,ATTACGCG,0.311
22,ACCAGCGA,-0.152
